Laboratory results reported in PubChem BioAssay AID1259415 (National Center for Advancing Translational Sciences (NCATS), 2018).
Values joined by “and” are separate entries in the source; they are usually repeats but may differ in a detail not shown here. Equal entries are not always repeated. The whole screen tested about 410,000 compounds, of which about 18,000 (4.4%) were called active. The shares of active, inactive and inconclusive entries below differ from those in the screen. No stated cut-off is given here; in the data, active means activity change below about -60%; inconclusive means no clear call, values can overlap the other calls; inactive means above about -39%.

Assay: qHTS Assay for inhibitors of the human cytomegalovirus (HCMV)
Conditions: HFF cells, HCMV-luciferase reporter, 72 h; at 57.5 µM; active compounds read low
Outline: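 Luciferase read-out from HCMV-luciferase-infected HFFs (MOI 1 PFU/cell) 72 h post infection at 37C; compounds added after 16 h cell attachment; activity normalized between buffer-only basal and Salinomycin (10uM) inhibitor controls.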
On the % scale 0 is the no-effect control and ±100 the full control effect.

SMILES	activity change, negative = inhibition
C#CCOc1ccc(C2C(C(=O)OC)=C(C)NC3=C2C(=O)c2ccccc23)cc1OCC (centres undefined)	inconclusive: -50.3%
CCn1c(C)cc(C(=O)CN2C(=O)c3ccccc3S2(=O)=O)c1C	inconclusive: 0%
CCOc1ccc(Sc2cc(C(=O)NCCCOC)c3ccccc3n2)cc1	inconclusive: -48.6%
C=CC(=O)NCC1OCCc2ccccc21 (centres undefined)	inconclusive: -40.3%
Cn1c(SCc2ccc(F)cc2Cl)nc2ccccc2c1=O	inconclusive: -51.9%
COc1ccc2cc(S(=O)(=O)c3ccccc3F)c(=O)oc2c1	inactive: -11.6%
C[C@H]1COC(=O)[C@@H](Cc2ccc(F)cc2)CC/C=C/C[C@@H](CC(=O)N(CCO)Cc2ccccc2)C(=O)N1	inconclusive: -42.2%
OC(COCC1COc2ccccc2O1)CN1CCc2ccccc2C1 (centres undefined)	inactive: 27.6%
COc1ccccc1NC(=O)CN1CCN(CC(=O)Nc2ccc(OCc3ccccc3)cc2)CC1	inconclusive: -49.6%
Cc1cccn2c(=O)c(/C=C(\C#N)C(=O)NCc3ccco3)c(N3CCCC(C)C3)nc12 (centres undefined)	inconclusive: -59.7%
CN(C(=O)c1ccc(NC(=O)Cc2cccc(NC(=O)C3CCCN(C(=O)C4CCC4)C3)c2)cc1)C1CCCC1 (centres undefined)	inactive: -29.3%
O=[N+]([O-])c1ccc(N2CCN(C(=S)Nc3ccccc3)CC2)cc1	inconclusive: -42.1%
O=S(=O)(Nc1ccc(-c2ccc3nncn3n2)cc1)c1cccs1	inactive: -28.9%
CC1(C)Cc2c(c(N3CCOCC3)nc3sc(C(=O)Nc4cccc(Cl)c4)c(N)c23)CO1	inconclusive: -40.4%
NS(=O)(=O)c1ccc(CCNc2ncnc3sccc23)cc1	inconclusive: -41.8%
COc1cccc(C(=O)N2CCC[C@H]2C(=O)N2CCC[C@H]2C(=O)N[C@@H](C)c2ccccc2)c1	inactive: -7.78%
COc1ccc(-c2cnc(C(O)c3ccc(OC)c(F)c3)[nH]2)cc1 (centres undefined)	inconclusive: -47.8%
CCN(CC)c1ccc2cc(-c3nc4ccccc4n3C)c(=O)oc2c1	active: -78.9%
O=c1c2ccccc2nc(SCc2nnc(-c3ccccc3Br)o2)n1-c1ccccc1	inconclusive: -55.3%
Cc1nc(SCC(=O)NCC2CCCO2)c2cc(-c3ccccc3)sc2n1 (centres undefined)	inconclusive: -55%
O=C(Nc1ccc(S(=O)(=O)N2CCCC2)cc1)C1CCN(S(=O)(=O)c2ccc(F)cc2)CC1	inconclusive: -48.2%

SMILES	activity change, negative = inhibition
Cc1ccc2c(c1)-c1c(cnn1CC(=O)Nc1ccccc1N1CCN(C)CC1)CO2	inconclusive: -41.1%
Cc1cccc(C(=O)OCC(=O)N2CCC(c3ccccc3)=N2)c1O	inconclusive: -46.4%
CC(C)OCCCN1C=C2C(=O)C(C)(OC(=O)CCc3ccccc3)C(=O)C=C2C=C1c1ccc(C#N)cc1 (centres undefined)	inactive: 1.86%
COc1ccc(N/C=C/C(=O)c2ccc3c(c2)OCO3)cc1OC	inactive: -25.9%
COc1ccc(-c2oc3c(c2C#CC(C)(C)O)C(OCCO)CC3)cc1 (centres undefined)	inactive: 0.384%
CCN(CC)CCNC(=O)C1CCCN(c2nnc(C)c3c(C)n(-c4ccc(Cl)cc4)nc23)C1 (centres undefined)	inconclusive: -45%
Cc1noc(C)c1COc1ccccc1C(=O)N1CCN(S(=O)(=O)c2ccccc2Br)CC1	active: -86.4%
O=[N+]([O-])c1ccc(Cl)c(/C=N/n2c(C3CCCCC3)n[nH]c2=S)c1	inconclusive: -48.4%
COC(=O)C1=C(C)NC(C)=C(C(=O)OC)C1C(=O)OC(C)C(=O)c1ccccc1 (centres undefined)	inactive: -11.3% and inactive: 5.66%
Clc1ccc2c(N3CCCC3)ccnc2c1	inconclusive: -41.5%
COc1cccc(/C=C2\SC(=S)N(CCC(=O)Nc3ccc(O)cc3)C2=O)c1	inactive: 31.7%
CC(=O)NCCc1ccc(S(=O)(=O)N2CCOCC2)cc1	inactive: 1.1%
CCOc1ccc(C(=O)CN2C(=O)NC3(CCCc4ccccc43)C2=O)cc1 (centres undefined)	inconclusive: -49.5%
CCOc1ccc(NCc2cc3c(C(C)(C)C)nn(-c4ccccc4)c3[nH]c2=O)cc1	inconclusive: -40.7%
COCCCNC(=S)N1CCN(c2ccccc2)CC1	inconclusive: -42.5%
Cc1noc(C)c1S(=O)(=O)NC(=O)C1(C)CCN1C(=O)Cc1ccc(-c2ccccc2)cc1 (centres undefined)	inactive: 1.1%
CCOc1ccc(Cn2c(CNS(=O)(=O)c3ccc(Cl)s3)nc3cccnc32)cc1	inconclusive: -45.3%
CCOC(=O)c1ccccc1NC(=O)Cn1c(=O)n(-c2cccc(C)c2)c(=O)c2c1c1cc(C)ccc1n2C	inactive: 33.3%
O=c1cc(CCl)nc(Cc2c(Cl)cccc2Cl)[nH]1	active: -92.8%
Cn1cc(S(=O)(=O)Cc2ccc(F)cc2)c2ccccc21	inconclusive: -43.6%
Cc1ccc(N=C2NC(=O)/C(=C/c3cccn3C)S2)c(C)c1	inconclusive: -59%

SMILES	activity change, negative = inhibition
Cc1cc(C)c(S(=O)(=O)N2CCCCC2)cc1N(C)S(=O)(=O)c1ccc(Cl)cc1	inconclusive: -49.6%
COc1c(F)c(F)c(C(=O)Nc2ccc(-c3nc4ccccc4[nH]3)cc2)c(F)c1F	inconclusive: -48.1%
Cc1ccccc1CN1[C@@H](Cc2ccccc2)COCCS1(=O)=O	inactive: -9.46%
CCn1c2ccccc2c2cc(NC(=O)COC(=O)Cc3cn4ccsc4n3)ccc21	inactive: 16.4%
COc1ccccc1CNC(=O)COC(=O)CCC(=O)c1cccs1	inconclusive: -41.6%
O=C(Nc1ccc(S(=O)(=O)NCC2CCCO2)cc1)c1ccc(Cl)cc1[N+](=O)[O-] (centres undefined)	inactive: 1.48%
O=C(CSc1nncn2c1cc1sccc12)Nc1ccc(Br)cc1F	inconclusive: -42.3%
CCc1ccccc1NC(=O)c1sc2nc3c(cc2c1N)CN(Cc1ccccc1)CC3	inconclusive: -53.5%
O=[N+]([O-])c1cccc(N=Nc2ccc(O)cc2O)c1	active: -79.7%
CC(NCC(O)COc1ccccc1)C1COc2ccccc2O1 (centres undefined)	inconclusive: -41.6%
COc1ccc(NC(=O)CN(Cc2ccccc2)Cc2ccccc2)cc1S(N)(=O)=O	active: -62.3%
COc1ccc(OC)c(NC(=O)CN(C)CCOc2ccc(Br)cc2)c1	inconclusive: -43.4%
Cc1cc(C)c(C(=O)/C=C/c2cccs2)c(=O)[nH]1	active: -63.6%
CCN(CC)C(=O)c1cccc(-c2csc(C(O)c3ccc(F)cc3)n2)c1 (centres undefined)	inconclusive: -42.6%
Cc1cc(C)n2cc(CSc3nc4cc(Cl)ccc4o3)nc2n1	inconclusive: -50.3%
O=C(Nc1ccc(Br)c(C(F)(F)F)c1)c1ccccc1	active: -89.6%
COc1ccc([C@H]2N[C@]3(CCCN(Cc4ccccc4)C3=O)[C@H]3C(=O)N(Cc4ccccc4)C(=O)[C@@H]23)cc1	inactive: 5.49%
O=C(C1CCN(c2ncnc3c2nc2n3CCCCC2)CC1)N1CCN(c2cccc(Cl)c2)CC1	active: -79.8% and active: -91.1%
COc1ccc(C(=O)NC(C(=O)N2CCc3ccccc32)C(C)C)cc1 (centres undefined)	inconclusive: -44.6%
Cc1cccc(C)c1OC(=O)CN(c1ccc(Cl)cc1)S(C)(=O)=O	inactive: 27.2%
CCCCc1nn2c(=O)cc(COC(=O)c3ccc(NC(=O)c4ccccc4C)cc3)nc2s1	inconclusive: -56.2%

Already shown: an excerpt of the list.
SMILES	activity change, negative = inhibition
Cc1ccccc1CN1[C@@H](Cc2ccccc2)COCCS1(=O)=O	inactive: -9.46%
CCn1c2ccccc2c2cc(NC(=O)COC(=O)Cc3cn4ccsc4n3)ccc21	inactive: 16.4%
COc1ccccc1CNC(=O)COC(=O)CCC(=O)c1cccs1	inconclusive: -41.6%
O=C(Nc1ccc(S(=O)(=O)NCC2CCCO2)cc1)c1ccc(Cl)cc1[N+](=O)[O-] (centres undefined)	inactive: 1.48%
O=C(CSc1nncn2c1cc1sccc12)Nc1ccc(Br)cc1F	inconclusive: -42.3%

Following part.

SMILES	activity change, negative = inhibition
C=CCc1cc(Cl)ccc1OC(=O)Nc1cccc(Cl)c1	inconclusive: -41.8%
COc1ccc2cc(C)c3nnc(SCC(=O)Nc4nc(-c5ccccc5)cs4)n3c2c1	inconclusive: -59.1%
COc1ccccc1/C=C1\SC(=S)N(CCC(=O)Nc2cc(C)on2)C1=O	inactive: 14.6%
COc1ccc(C(=O)N2CCC(C(=O)Nc3ccc4c(c3)OCCO4)CC2)cc1	inconclusive: -41.7%
O=C(Nc1ccc(F)c(Cl)c1)Nc1ccc(Cl)cn1	inconclusive: -42.8%
N#Cc1cc(Oc2ccccc2)c(-n2nnc3ccccc32)cc1C#N	inactive: 20.4%
COc1ccc2c(c1OC)C(=O)N1C2SC(C)(C)[C@H]1C(=O)NC1CC1 (some centres undefined)	inactive: 31.4%
COc1cccc(-c2cc3nc4c(c(N5CCC6(CC5)OCCO6)n3n2)CCC4)c1	inactive: 7.75%
COc1ccccc1NS(=O)(=O)c1cc(NC(=O)C(C)(C)C)ccc1N1CCOCC1	inactive: -21.8%
Cc1ccc(NC(=S)NC2CC3CCCC(C2)N3Cc2cccs2)cc1 (centres undefined)	inactive: -36%
COc1cc2c(cc1OC)C(C)NCC2 (centres undefined)	inconclusive: -43.4%
COc1ccc(CCNC(=O)c2cc(S(=O)(=O)N3CCCCC3)ccc2Cl)cc1	inactive: -19.1%
CCC(C(=O)Nc1cc(Cl)ccc1OC)c1ccccc1 (centres undefined)	inconclusive: -40.1%
COc1ccccc1N(CC(=O)NCc1ccccc1)S(=O)(=O)c1cccs1	inconclusive: -52.4%
COCC(=O)NCc1nc2cccnc2n1Cc1ccc(F)cc1	inactive: 4.64%
CCOc1ccc(CCNC(=O)CN2C(=O)NC(CCSC)C2=O)cc1OCC (centres undefined)	inactive: -15.8%
CCn1c(C(=O)NCc2ccccc2C)cc2oc3ccccc3c21	active: -82.4%
O=c1c(-c2ccco2)[n+]([O-])c2ccccc2n1OCc1ccccc1F	inactive: -29.9%
COc1cc(CCCN2C(=O)C(=O)NC[C@H]2Cc2cccc3ccccc23)cc(OC)c1OC	inconclusive: -49.7%
C/C(=N\NC(=O)c1cc2ccccc2cc1O)c1ccc(C)o1	inactive: -13.8%
O=C(CCN1C(=O)c2ccccc2C1=O)NC(=S)Nc1ccccc1Cl	inconclusive: -43.3%
